# Results reported in EP4825863A1, “DESIGN, PREPARATION AND APPLICATION OF TARGETED ACTIVATION ENRICHMENT TYPE NEAR-INFRARED PROBE AND PHOTOSENSITIZER” (dated 2026).
# By UniProt entry, the sequences of proteins in these tests, tags left out. Residues count along the entry.
# UniProt P62593, 24-286 limits assumed: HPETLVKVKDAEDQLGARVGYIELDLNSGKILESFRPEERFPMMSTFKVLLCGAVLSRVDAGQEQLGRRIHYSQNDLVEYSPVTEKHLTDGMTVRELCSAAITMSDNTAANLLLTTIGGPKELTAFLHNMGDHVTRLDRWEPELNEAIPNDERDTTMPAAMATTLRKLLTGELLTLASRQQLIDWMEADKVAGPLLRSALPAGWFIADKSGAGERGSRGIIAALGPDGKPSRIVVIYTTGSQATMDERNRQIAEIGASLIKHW
# Structures were worked out from names or drawings and are uncertain.
# Experiments:
# [1] = target: β-lactamase TEM-1 (Escherichia coli, UniProt P62593); assay: SDS-PAGE and dual-color near-infrared fluorescence scanning (protein labeling); settings: 10 µM, TEM-1 5 µM, BSA 10 µM
# Procedure: Experimental conditions: A 12% SDS-PAGE resolving gel and a 5% stacking gel were prepared. The probes and photosensitizers were prepared as 10 µM working solutions in PBS (pH = 7.4) and incubated with different proteins at 37°C for 2 hours. The concentrations of β-lactamase TEM-1 and BSA were 5 µM and 10 µM, respectively. For the inhibitor group, the inhibitor avibactam (1 mM) was pre-incubated with TEM-1 for 30 minutes before co-incubation with the probe. Subsequently, SDS-PAGE loading buffer was added to the samples and mixed thoroughly. Each sample (15 µL) was loaded onto the gel and subjected to electrophoresis. Upon completion, fluorescent bands were obtained using dual-color near-infrared fluorescence scanning. Finally, the gel was stained with Coomassie Brilliant Blue and photographed using a gel imaging system.
# [2] = tested on: ALP; assay: Solution-phase enzymatic response of probe to ALP (absorption, fluorescence, HPLC); settings: probe 10 µM
# Procedure: The absorption spectra of probes were measured using a UV-Vis spectrophotometer over a wavelength range of 400 to 800 nm. The fluorescence spectra were measured using a fluorescence spectrometer with an excitation wavelength of 687 nm, excitation and emission slit widths of 3 nm, and an emission scanning range of 697 to 850 nm. The temporal changes in fluorescence intensity were measured using a microplate reader (SpectraMax i3). Measurements were performed in a 96-well plate with a default total volume of 100 µL per well, an excitation wavelength of 687 nm, an emission wavelength of 714 nm, and excitation and emission slit widths of 15 nm. The PMT was set to the default value of the microplate reader, with 10 flashes per read. Unless otherwise specified, all fluorescence and absorption measurements were carried out in PBS (1×, pH 7.4) containing 0.1% CHAPS (surfactant; 3-[(3-cholamidopropyl)dimethylammonio]-1-propanesulfonate). […]
# Following incubation of probe ALPIN-6 (10 µM) with ALP (2 U/mL) in PBS in a water bath at 37°C for 30 minutes, the reaction mixture was centrifuged at 12,000 r/min for 10 minutes using a 10 kDa ultrafiltration membrane to remove proteins. A 100 µL aliquot of the filtrate was analyzed by HPLC at a wavelength of 600 nm.
# [3] = tested on: ALP; assay: Gel imaging of covalent protein labeling (SDS-PAGE, near-infrared scan); settings: probe 10 µM, ALP 8 µM, BSA 5 µM, 37°C, 2 hours
# Procedure: According to experimental requirements, gel electrophoresis samples with a total volume of 25 µL were prepared as follows: Fluorescent probe ALPIN-6 or ALPIN-5 (10 µM) was incubated with different protein samples (ALP, 8 µM; BSA, 5 µM) at 37°C for 2 hours. Subsequently, 2 µL of gel electrophoresis loading buffer (5×) was added and mixed well for later use. An 8% polyacrylamide gel was prepared according to the Beyotime kit instructions, and 20 µL of each sample was loaded into individual wells. SDS-PAGE electrophoresis was carried out at 120 V for 2 to 3 hours. Following electrophoresis, the resulting gel was scanned using an Odyssey CLx Image Studio dual-color near-infrared imaging system (λex/em = 685 nm/720 nm). The resulting fluorescence images were analyzed for fluorescent protein bands. Subsequently, the protein gel was stained with Coomassie Brilliant Blue solution for 30 minutes on a shaker to visualize protein bands. Excess dye was then removed using Coomassie Brilliant Blue destaining solution (ethanol/acetic acid/water = 1:2:7), and the gel was photographed using a mobile phone.
# [4] = tested on: HeLa cells overexpressing alkaline phosphatase (ALP); assay: Confocal fluorescence imaging of HeLa cells with ALPIN-6, ALPIN-5, ALPIN-4; settings: 1 µM
# Procedure: Experimental conditions: 1 µM of the fluorescent probes ALPIN-6, ALPIN-5, and ALPIN-4 were incubated separately with HeLa cells overexpressing ALP on the cell surface and normal HEK293 cells with low ALP expression in a culture dish at 37°C for 30 minutes. Alternatively, HeLa cells were pre-treated with the alkaline phosphatase inhibitor Na3VO4 for 1 hour, followed by incubation with the probes for 30 minutes. After incubation, the probe-containing culture medium was discarded, and the cells were washed once with PBS (pH = 7.4). Subsequently, 1 mL of phenol red-free DMEM was added, and fluorescence imaging was performed using a confocal fluorescence microscope (Cy 5.5 channel).
# [5] = tested on: HeLa cells; assay: Real-time confocal imaging of HeLa cells with ALPIN-6; settings: 0.1 µM, at 20 minutes
# Procedure: Experimental conditions: Cultured HeLa cells were seeded in a confocal dish, and 0.1 µM of the fluorescent probe ALPIN-6 was added to the HeLa cells. Time-dependent fluorescence imaging was performed using a confocal fluorescence microscope (Cy 5.5 channel).
# [6] = tested on: mixed HeLa and HEK293 cells; assay: Specific imaging of mixed HeLa and HEK293 cells; settings: 1 µM, 37°C, 20 minutes
# Procedure: Experimental conditions: Cultured HeLa and HEK293 cells (stably expressing green fluorescent protein) were seeded in a confocal dish, and 1 µM of the fluorescent probe ALPIN-6 was added to the mixed cells, followed by incubation at 37°C for 20 minutes. Fluorescence imaging was then performed using a fluorescence microscope.
# [7] = tested on: HeLa tumor; assay: Real-time in vivo fluorescence imaging of HeLa tumor-bearing mice (ALPIN-6); settings: for Fluorescence intensity at different time points: 200 µL of 40 µM in PBS, tail vein
# Procedure: Establishment of HeLa tumor xenograft model in nude mice: • (1) Preparation of HeLa cells: Cells were cultured and passaged as described above. The cultured cells were centrifuged following digestion, and washed twice with PBS (1 mL per wash). After centrifugation and removal of the supernatant, the cells were resuspended in FBS-free DMEM, counted, mixed with Matrigel, and placed in an ice bath for later use. • (2) Inoculation of HeLa cells into tumor-bearing nude mice: Female BALB/c nude mice aged 4 to 6 weeks were subcutaneously inoculated in the right hind limb with 200 µL of a mixture containing HeLa cells (4 × 10^6) in DMEM (without FBS) and Matrigel (1:4), using a 1 mL sterile medical syringe. The mice were maintained at 25°C for 2 to 3 weeks with free access to water and food. When the tumor volume reached approximately 0.1 cm^3, animal imaging experiments were performed. • (3) In vivo imaging of HeLa tumor-bearing nude mice using probes via tail vein injection: The experimental mice were first divided into three groups with three mice per group. Whole-body background fluorescence images were acquired from six nude mice using an IVIS Lumina XRMS Series III in vivo imaging system (λex = 660 nm, λem = 710 nm). The fluorescent probe ALPIN-6 or ALPIN-4 was then prepared as a 40 µM solution in PBS. Each tumor-bearing mouse received 200 µL of the prepared probe solution via tail vein injection using an insulin syringe. Subsequently, whole-body fluorescence data from the experimental mice were collected using the in vivo imaging system at multiple time points (1 h, 2 h, 3 h, 4 h, 6 h, 8 h, 24 h, and 36 h). For the inhibitor group, 50 µL of 10 mM Na3VO4 solution was first injected intratumorally, and 30 minutes later, ALPIN-6 was administered at the same concentration, followed by imaging at the same time points. • (4) Ex vivo imaging of tissues from HeLa tumor-bearing nude mice: In the tail vein injection group, at 36 hours post-injection, the nude mice were sacrificed by cervical dislocation. The tumors, heart, lungs, liver, spleen, and kidneys were harvested and subjected to fluorescence imaging.
# [8] = In vivo safety (blood routine, blood biochemistry, H&E staining); settings: 1 µmol/kg tail vein, 24 hours after injection
# Procedure: Experimental conditions: The in vivo safety of probes was evaluated by analyzing blood routine parameters, blood biochemical indicators, and histological staining. Female BALB/c mice aged 4 to 6 weeks were obtained from the Shanghai Laboratory Animal Research Center. The mice were housed at 25°C with free access to food and water. For histological analysis, the mice were divided into three groups with three mice per group, and administered normal saline, the primary probe BIN-3, and the control probe BIN-2 (1 µmol/kg) via tail vein injection. Twenty-four hours after injection of normal saline or probes, the mice were euthanized and dissected. Tissue sections were prepared from the organs (heart, lungs, liver, spleen, and kidneys) and subjected to hematoxylin and eosin (H&E) staining. For hematological analysis, the mice were divided into three groups with three mice per group, and administered normal saline, BIN-3, and BIN-2 (1 µmol/kg) via tail vein injection. Twenty-four hours after injection, blood samples were collected from the mice in each group and submitted for blood routine analysis.
compound,measurement,setting,value
C[N+]1=C(/C=C/C2=C3Oc4cc(OCC5=C(C(=O)O)N6C(=O)[C@@H](NC(=O)CCc7cn(C(CC(=O)O)C(=O)O)nn7)[C@H]6SC5)ccc4C=C3CCC2)C(C)(C)c2cc(I)ccc21 (stereo partly drawn),labeling of BSA protein after activation by TEM-1,[1],did not exhibit any protein-labeling capability
CCC[N+]1=C(/C=C/C2=C3Oc4cc(OCc5ccc(OP(=O)(O)O)cc5)c(COC(=O)NCc5cn(CC[N+](C)(C)CCCS(=O)(=O)O)nn5)cc4C=C3CCC2)C(C)(C)c2ccccc21,absorption and fluorescence change after reaction with ALP,"[2]; ALP 2 U/mL, PBS pH 7.4 with 0.1% CHAPS, 37°C, 30 minutes",a red-shift in absorption and an enhancement in fluorescence intensity
same,specificity of fluorescence response,[2]; PBS pH 7.4,can specifically respond to ALP
same,protein-labeling performance following enzymatic activation,[3],the strongest protein-labeling performance
same,fluorescence imaging of cells,"[4]; 37°C, 30 minutes, compared with ALPIN-5 and ALPIN-4",more pronounced fluorescence imaging of ALP-overexpressing cells
same,fluorescence labeling of HeLa cells in the ALP inhibitor group,[4]; HeLa cells pre-treated with Na3VO4 for 1 hour,reduced
same,fluorescence intensity associated with the cells relative to background fluorescence,[5],more than 2000 fold
same,specific imaging in mixed cells,[6],enables specific imaging of the ALP-overexpressing HeLa cells
same,Fluorescence intensity at different time points,[7]; 0 (h),1.65 ± 0.37 × 10^8
same,Fluorescence intensity at different time points,[7]; 1 (h),6.78 ± 1.13 × 10^8
same,Fluorescence intensity at different time points,[7]; 2 (h),5.78 ± 0.50 × 10^8
same,Fluorescence intensity at different time points,[7]; 3 (h),5.79 ± 0.55 × 10^8
same,Fluorescence intensity at different time points,[7]; 4 (h),5.64 ± 0.31 × 10^8
same,Fluorescence intensity at different time points,[7]; 6 (h),5.65 ± 0.39 × 10^8
same,Fluorescence intensity at different time points,[7]; 8 (h),4.98 ± 0.72 × 10^8
same,Fluorescence intensity at different time points,[7]; 24 (h),5.89 ± 0.42 × 10^8
same,Fluorescence intensity at different time points,[7]; 36 (h),5.25 ± 0.34 × 10^8
same,time up to which significant tumor-associated fluorescence remained detectable,[7]; intravenous administration,up to 36 hours
CCC[N+]1=C(/C=C/C2=C3Oc4cc(OCC5=C(C(=O)O)N6C(=O)[C@@H](NC(=O)CCc7cn(CC[N+](C)(C)CCCS(=O)(=O)O)nn7)[C@H]6SC5)ccc4C=C3CCC2)C(C)(C)c2ccccc21,labeling of BSA protein after activation by TEM-1,[1],did not exhibit any protein-labeling capability
same,"blood routine, blood biochemical indicators and H&E staining of major organs versus normal saline",[8],no significant differences were observed
CCC[N+]1=C(/C=C/C2=C3Oc4cc(OCC5=C(C(=O)O)N6C(=O)[C@@H](NC(=O)CCc7cn(CC[N+](C)(C)CCCS(=O)(=O)O)nn7)[C@H]6SC5)c(COC(=O)NCC)cc4C=C3CCC2)C(C)(C)c2ccccc21,"blood routine, blood biochemical indicators and H&E staining of major organs versus normal saline",[8],no significant differences were observed
